Taken from: PubChem BioAssay AID602196 (INSERM, 2012)
Aim: 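Modifiers of cisplatin sensitivity in A549 cells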. Cell system: human A549 lung cancer cells. Reagents: siRNA pair against human genes. Time to read-out: 48 h transfection before cisplatin; time from cisplatin to read-out not stated. Treatment: cisplatin at a dose killing half of control-siRNA cells; exact dose and duration not given. Detection: 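Cisplatin cell death as a shift from the 50% death seen with control siRNA; siRNAs toxic or growth-blocking alone scored 0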. Reading the numbers: two-siRNA summed score (-2 to +2): higher = both siRNAs protect from cisplatin killing; -2 means both sensitise. Hit rule: 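Each siRNA scores 0 if harmful alone by LDH or WST-1, otherwise +1 if it reduces and -1 if it increases cisplatin killing; a gene is active when both siRNAs agree (sum +2 or -2)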. Meaning of the calls: active = both siRNAs shift cisplatin killing the same way; inactive = no consistent shift, or siRNA harmful alone.
In all, the deposit lists about 23,000 reagents; below is an unselected part. In the full data, 455 (2%) got an active call. 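Active includes both protection and sensitisation; some change values fall well beyond the stated -50 to +50 range.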 Entries without a mark were called inactive. Not all columns of the deposit are shown. Not stated in the record: the amount of reagent.

| gene symbol | PubChem SID | two-siRNA summed score (-2 to +2) |
| --- | --- | --- |
| MPG | SID131500984 | -1 |
| PAX4 | SID131520503 | 1 |
| EVA1B | SID131509974 | 0 |
| DNAAF1 | SID131512769 | 0 |
| DNAAF9 | SID131515144 | 0 |
| LOC441452 | SID131503514 | 0 |
| APOB | SID131521041 | 1 |
| TBC1D12 | SID131510944 | 0 |
| HS3ST5 | SID131520788 | 1 |
| LOC388361 | SID131512818 | 0 |

Targets listed so far whose gene name begins with L or l (2):
| gene symbol | PubChem SID | two-siRNA summed score (-2 to +2) |
| --- | --- | --- |
| LOC441452 | SID131503514 | 0 |
| LOC388361 | SID131512818 | 0 |

The list goes on:
| gene symbol | PubChem SID | two-siRNA summed score (-2 to +2) |
| --- | --- | --- |
| IQCC | SID131506473 | 0 |
| ATAD3A | SID131509768 | 0 |
| MGC12966 | SID131506047 | 0 |
| GATA1 | SID131519051 | 1 |
| PIK3R3 | SID131500816 | -1 |
| CCDC172 | SID131516768 | 0 |
| ODF2 | SID131511716 | 0 |
| LINC00971 | SID131515818 | 0 |
| CCNB1IP1 | SID131514159 | 0 |
| GRIN1 | SID131503833 | 0 |
| SGSM2 | SID131519780 | 1 |
| PCDHGA10 | SID131509781 | 0 |
| SRPK2 | SID131502324 | -1 |
